Measurements reported in PubChem BioAssay AID504774 (Drosophila RNAi Screening Center, 2011)

Aim: 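Genes required for cells to withstand methyl methanesulphonate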 (primary screen)
Cell system: Drosophila Kc167 cells
Knock-down reagent: long dsRNA against Drosophila genes, about 0.25 µg dsRNA per well
Duration: about 6 days: 3 days knock-down, then 3 days with or without MMS
Conditions: methyl methanesulphonate 0.004% (w/v) for 3 days after knock-down
Detection: 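Viability in wells given MMS, read as ATP luminescence, normalised by quantiles plate by plate and averaged across replicates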
Direction: mean viability with MMS: higher = more surviving cells after MMS
The deposit covers about 23,000 reagents; shown is an unselected part of those with a known target gene and a result. 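Values are quantile-normalised luminescence on an arbitrary scale; higher means more cells surviving MMS.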 A plus sign joins genes that one reagent is predicted to hit. Not all columns of the deposit are shown.

CG13920 [DRSC08389] | mean viability with MMS = 3.52e6
CG13272 [DRSC02249] | mean viability with MMS = 3.58e6
CG13272 [DRSC22910] | mean viability with MMS = 3.50e6
CG31687 + Cdc23 [DRSC23052] | mean viability with MMS = 3.08e6
CG13204 [DRSC06328] | mean viability with MMS = 3.56e6
Mur2B [DRSC18545] | mean viability with MMS = 3.56e6
Mur2B [DRSC18546] | mean viability with MMS = 3.51e6
CG31924 [DRSC00689] | mean viability with MMS = 3.47e6

Continued (2 carried over from the part before).
Mur2B [DRSC18546] | mean viability with MMS = 3.51e6
CG31924 [DRSC00689] | mean viability with MMS = 3.47e6
CG14416 [DRSC18639] | mean viability with MMS = 3.48e6
CG4281 [DRSC18521] | mean viability with MMS = 3.56e6
euc [DRSC14492] | mean viability with MMS = 3.77e6
CycB3 [DRSC16618] | mean viability with MMS = 3.58e6
Dph2 [DRSC16222] | mean viability with MMS = 3.63e6
Rpt2 [DRSC16799] | mean viability with MMS = 2.77e6
